PubChem BioAssay AID1259405 | NCATS | 2018
Aim: 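Silenced genes that increase secreted GFP made by CHO cells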 (primary screen). Cells: Chinese hamster CHO-K1 ovary cells with stable secreted eGFP expression. Reagent: single siRNA against mouse genes, 0.8 pmol siRNA per well (2 µl of 400 nM stock). Timing: 3 days. Measurement: 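Per-well intracellular GFP measured by laser scanning cytometry, plus viability from ATP luminescence, each relative to plate median of non-targeting control wells, in %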. Reading the numbers: GFP, % of control: higher = more GFP per well, higher productivity; viability (ATP), % of control: higher = more viable cells (more ATP). Active means: 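a knock-down is called active if GFP reaches 120% or more of non-targeting control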.
Shown is a random part of about 50,000 reagents tested. About 4,000 of them (8%) were called active. 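Mouse siRNA library applied to hamster cells; one well for each siRNA.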 A number with no mark means an inactive call. No sequences are given here.

no.	gene	PubChem SID	GFP, % of control	viability (ATP), % of control
1	Ssmem1	SID363543566	22.6	65
2	Ssmem1	SID363553059	37.6	47.7
3	Ssmem1	SID363558907	85.6	80.5
4	Igbp1b	SID363540290	67.8	89
5	Igbp1b	SID363542042	76.3	48.7
6	Igbp1b	SID363566958	116	41.4
7	Zbtb35	SID363541163	56.9	65.1
8	Zbtb35	SID363555790	86.8	78.5
9	Zbtb35	SID363566079	68.9	75.7
10	Cnot6	SID363569801	130 (active)	72.7
11	Cnot6	SID363576841	66.3	63.7
12	Cnot6	SID363578249	81.3	120
13	4930579K19Rik	SID363542482	109	61.1
14	4930579K19Rik	SID363551973	49.8	37.9
15	4930579K19Rik	SID363559578	77.5	106
16	Sspo	SID363553613	45.7	62.7
17	Sspo	SID363561570	92	79.1
18	Sspo	SID363565308	72.1	50.2
19	Mrpl48	SID363562187	153 (active)	64.5
20	Mrpl48	SID363567325	105	96.8
21	Mrpl48	SID363584682	94.4	49
22	Extl1	SID363570586	57.4	52.1
23	Extl1	SID363579386	204 (active)	121
24	Extl1	SID363583258	98.4	105
25	Or6c75	SID363554732	107	83.1
26	Or6c75	SID363568179	37.6	38.5
27	Or6c75	SID363586238	98	0.829
28	Osbpl6	SID363554590	53.9	61.2
29	Osbpl6	SID363568037	61.3	68.2
30	Osbpl6	SID363586096	75.8	96.2
31	Txndc15	SID363543373	50.4	44.8
32	Txndc15	SID363552866	25.6	40.7
33	Txndc15	SID363558714	61.7	63.9
34	Eif6	SID363569615	92.8	95.1
35	Eif6	SID363577359	108	79.9
36	Eif6	SID363578767	85.7	88.6
37	Plrg1	SID363554798	95.8	58.9
38	Plrg1	SID363568245	82.6	47.7
39	Plrg1	SID363586304	66.9	106
40	Angel2	SID363581912	102	126
41	Angel2	SID363589406	35.7	42.7
42	Tmem130	SID363547194	51.3	71.1
43	Tmem130	SID363550006	64.4	74.1
44	Tmem130	SID363588060	163 (active)	147
45	Nlrc5	SID363546714	63.8	72.6
46	Nlrc5	SID363548470	79.4	95.2
47	Nlrc5	SID363560648	0	369
48	Stam	SID363547735	70.9	72.5
49	Stam	SID363558504	80.3	84.2
50	Stam	SID363560262	94.5	107
51	Xpo7	SID363545503	78.9	30.1
52	Xpo7	SID363549016	68.2	84
53	Xpo7	SID363562822	79.9	73.6
54	Ccdc134	SID363543659	33.8	55.7
55	Ccdc134	SID363553152	50.9	47
56	Ccdc134	SID363559000	92.3	107
57	Vps36	SID363543413	55	48.6
58	Vps36	SID363552906	97.9	71.5
59	Vps36	SID363558754	49.5	60.3
60	Cstf2t	SID363569320	75.3	72.4
61	Cstf2t	SID363577064	78.5	69.7
62	Cstf2t	SID363578472	85.3	82.3
63	Cmah	SID363550197	74.5	94.8
64	Cmah	SID363564706	65.5	74.2
65	Cmah	SID363588251	58.9	87.5
66	Plcg1	SID363569510	48	77.3
67	Plcg1	SID363577254	68.8	83.6
68	Plcg1	SID363578662	50.3	47.4
69	Bace1	SID363574491	93	102
70	Bace1	SID363575547	78	66.5
71	Bace1	SID363580123	49.6	63.9

An excerpt from above, showing only “GFP, % of control”:
Sspo [SID363565308] = 72.1
Mrpl48 [SID363562187] = 153 (active)
Mrpl48 [SID363567325] = 105
Mrpl48 [SID363584682] = 94.4
Extl1 [SID363570586] = 57.4
Extl1 [SID363579386] = 204 (active)

Next reagents follow.
no.	gene	PubChem SID	GFP, % of control	viability (ATP), % of control
72	Mfsd2a	SID363569142	106	90.9
73	Mfsd2a	SID363583574	126 (active)	87.3
74	Tut7	SID363556596	83.1	72.3
75	Tut7	SID363563500	93.4	82.1
76	Tut7	SID363587046	78.9	101
77	Muc20	SID363562378	103	86.8
78	Muc20	SID363567516	38.4	75.3
79	Muc20	SID363584873	89.2	56.1
80	Rad54l	SID363569601	55.3	70.4
81	Rad54l	SID363577345	80.9	68.4
82	Rad54l	SID363578753	72.1	96.5
83	Or5w16	SID363544388	96.9	80.7
84	Or5w16	SID363550716	97.5	67.6
85	Or5w16	SID363557265	61.3	69.3
86	Ublcp1	SID363546641	87.4	66.6
87	Ublcp1	SID363548397	78.6	88
88	Ublcp1	SID363560575	82.9	48.4
89	Fam199x	SID363547138	86.2	98.2
90	Fam199x	SID363549950	74.2	83.8
91	Fam199x	SID363588004	115	95.9
92	Rnf220	SID363542529	47.5	61.4
93	Rnf220	SID363552020	91.1	60.4
94	Rnf220	SID363559625	79.9	85.1
95	Ly96	SID363544369	77	75
96	Ly96	SID363550697	91.7	102
97	Ly96	SID363557246	67.2	69.7
98	Notch4	SID363573235	57	42.6
99	Notch4	SID363588474	84	81.9
100	Tff3	SID363541827	73.3	68.3
101	Tff3	SID363553419	23.7	23.7
102	Tff3	SID363566743	49.9	35
103	Yme1l1	SID363547260	93.9	79.3
104	Yme1l1	SID363558029	88.1	84.7
105	Yme1l1	SID363559787	136 (active)	92.4
106	Ramp2	SID363568633	71.9	111
107	Ramp2	SID363576025	48.4	40.8
108	Ramp2	SID363578841	57.3	90.5
